Where a name gives a salt, the structure may show the parent alone. The list shows a part of the results. Repeats in this data set agree poorly, so a single value says little.
Test system: MDA-MB-468
Assay: phospho-S6 immunofluorescence (DAPI-normalised), per-plate z-score; higher = higher phospho-S6 signal (less pathway suppression)
Conditions: 24 h
Method: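 GPCR-targeted compound library (MedChemExpress HY-L006) tested on MDA-MB-468 PTEN-null TNBC cells in 384-well plates at 0.1, 1 or 10 uM, combined with vehicle, GDC0941 450 nM or lapatinib 1 uM, for 24 h. Phospho-S6 (S240/244) immunofluorescence normalised to DAPI and expressed as a per-plate z-score; values are the mean of biological triplicates.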

[1] = compound 0.1 µM, co-treatment: GDC0941 450 nM
[2] = compound 0.1 µM, co-treatment: lapatinib 1 uM
[3] = compound 0.1 µM, co-treatment: vehicle
[4] = compound 1 µM, co-treatment: GDC0941 450 nM
[5] = compound 1 µM, co-treatment: lapatinib 1 uM
[6] = compound 1 µM, co-treatment: vehicle
[7] = compound 10 µM, co-treatment: GDC0941 450 nM
[8] = compound 10 µM, co-treatment: lapatinib 1 uM
[9] = compound 10 µM, co-treatment: vehicle

Row | SMILES | phospho-S6 immunofluorescence (z-score) [1] | phospho-S6 immunofluorescence (z-score) [2] | phospho-S6 immunofluorescence (z-score) [3] | phospho-S6 immunofluorescence (z-score) [4] | phospho-S6 immunofluorescence (z-score) [5] | phospho-S6 immunofluorescence (z-score) [6] | phospho-S6 immunofluorescence (z-score) [7] | phospho-S6 immunofluorescence (z-score) [8] | phospho-S6 immunofluorescence (z-score) [9]
1 | CCCCC(=O)N(Cc1ccc(-c2ccccc2-c2nnn[nH]2)cc1)[C@H](C(=O)O)C(C)C.CCOC(=O)[C@H](C)C[C@@H](Cc1ccc(-c2ccccc2)cc1)NC(=O)CCC(=O)O | 1.2 | -0.78 | -1.08 | 1.05 | -0.42 | -0.07 | 0.23 | 0.37 | 0.21
2 | O=C1NCCN1CCN1CCC(c2cn(-c3ccc(F)cc3)c3ccc(Cl)cc23)CC1 [Sertindole] | -0.38 | -0.06 | -0.84 | -0.52 | 1.07 | -0.01 | -4.7 | -6.25 | -4.35
3 | CCCCOc1ccc(C(=O)Nc2ccc(F)cc2F)cc1 | 0.41 | 0.4 | 1.4 | 2.18 | -1.36 | 0.99 | – | – | –
4 | c1ccc(NCc2ccc(CNc3ccccn3)cc2)nc1 | 0.09 | 0.19 | 0.51 | -0.09 | -0.34 | 0.38 | 0.88 | -0.48 | 0.72
5 | CCCN(CCc1cccs1)[C@H]1CCc2c(O)cccc2C1 [Rotigotine (Hydrochloride)] | 0.48 | -1.11 | -1.28 | -0.17 | -0.39 | -1.37 | – | – | –
